For some of these results: For at least one compound, name, drawing or mass did not settle the structure. Some results were stated once for a whole list of compounds, not compound by compound.
Assays:
Format in all cases: cell-based, human
[1] = system: Phosphorylated SMAD1 (pSMAD1); experiment: SMAD1 phosphorylation (Western blot); settings: 5 μM inhibitor
[2] = system: SOX2; experiment: SOX2 expression by Western blot / qRT-PCR in cancer cells; settings: 10 nM, PA1 and OVCAR3 cells
Method: Lysate and RNA preparation: 100,000-300,000 cells were seeded in a poly-HEMA coated 6-well plate for indicated times in full serum unless indicated otherwise. Cells were collected by centrifugation and lysed with trizol for RNA extraction or direct 2× lysis buffer for protein lysates.
Xenograft data were analyzed using parametric statistics as described in the legends. Survival curves were analyzed with log-rank statistics. In vitro experiments were analyzed using parametric statistics (ANOVA global test with Dunnett's/Sidak multiple comparison test as post-hoc tests as applicable and described in legend) and presented as the mean±SEM. All real time PCR's are relative semi quantitative RT-PCR's (hereby referred to as qRT-PCR) and are a combined quantitation of a minimum of 3 independent biological trials assayed in triplicate with biological replicates represented as individual scatter dots in the graphs or as indicated in legends. In all cases, statistical significance was set at a threshold of p<0.05. All statistical analyses were conducted with GraphPad Prism Software Ver. 9.0 and specific statistical test information described in figure legends.

[3] = system: OC cell lines (PA1, OVCA420, OVCAR3, SKOV3, OVCA433); experiment: Live/Dead analysis under anchorage independence (anoikis), panel of OC cell lines; settings: 10 nM for 24 hours after 48 hours anchorage independence

Compound | pSMAD1 in response to BMP2 and -9 [1] | time at which SOX2 mRNA repression began [2] | time at which SOX2 protein repression began [2] | decrease of live-to-dead cell ratio in spheroids [3]
c1cc(-c2cnn3cc(-c4ccc(OCCN5CCCCC5)cc4)cnc23)ccn1 [DM, Dorsomorphin] | repressed | – | – | –
BMP9: recombinant human bone morphogenetic protein 9 (BMP9/GDF2), TGF-β family ligand | – | ≤ 2 h | ≤ 6 h | 1.8-4.25 times

From patent US20240408175A1, “BMP9 OR AN AGONIST THEREOF AND ITS USES RELATED TO REDUCING METASTASIS OF CANCER” (THE UAB RESEARCH FOUNDATION, priority 2021, published 2024)
